In paper PMC3205050 one finds binding data, which are given here for 3 substances.

Protein sequences, listed by entry. Tags and fused reporters are not part of them.
UniProt P27008: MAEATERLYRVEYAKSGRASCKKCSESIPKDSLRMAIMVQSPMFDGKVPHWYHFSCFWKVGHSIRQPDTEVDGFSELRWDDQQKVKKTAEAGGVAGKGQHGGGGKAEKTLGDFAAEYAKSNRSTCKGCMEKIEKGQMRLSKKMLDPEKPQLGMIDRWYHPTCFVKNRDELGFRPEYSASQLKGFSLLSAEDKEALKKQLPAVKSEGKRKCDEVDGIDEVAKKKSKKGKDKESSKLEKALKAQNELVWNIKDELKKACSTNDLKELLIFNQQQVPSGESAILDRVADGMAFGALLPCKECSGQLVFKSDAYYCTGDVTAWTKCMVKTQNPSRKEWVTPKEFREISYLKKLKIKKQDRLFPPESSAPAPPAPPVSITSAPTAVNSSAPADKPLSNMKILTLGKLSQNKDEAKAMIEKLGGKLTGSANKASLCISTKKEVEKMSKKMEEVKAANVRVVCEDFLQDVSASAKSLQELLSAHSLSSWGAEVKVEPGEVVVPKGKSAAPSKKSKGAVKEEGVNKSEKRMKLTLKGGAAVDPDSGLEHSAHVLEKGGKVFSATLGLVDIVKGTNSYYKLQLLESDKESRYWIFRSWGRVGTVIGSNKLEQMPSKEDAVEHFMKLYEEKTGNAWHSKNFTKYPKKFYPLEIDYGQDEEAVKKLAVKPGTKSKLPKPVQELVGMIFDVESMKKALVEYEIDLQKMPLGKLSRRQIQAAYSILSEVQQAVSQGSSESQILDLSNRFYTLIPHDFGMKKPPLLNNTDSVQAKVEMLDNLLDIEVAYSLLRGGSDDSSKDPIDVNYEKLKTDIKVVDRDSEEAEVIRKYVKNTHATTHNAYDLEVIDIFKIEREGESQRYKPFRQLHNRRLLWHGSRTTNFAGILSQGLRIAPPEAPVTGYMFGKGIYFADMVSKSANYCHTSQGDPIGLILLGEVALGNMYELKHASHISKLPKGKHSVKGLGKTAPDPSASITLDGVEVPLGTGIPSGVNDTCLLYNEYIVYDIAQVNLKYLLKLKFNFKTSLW
UniProt P84025: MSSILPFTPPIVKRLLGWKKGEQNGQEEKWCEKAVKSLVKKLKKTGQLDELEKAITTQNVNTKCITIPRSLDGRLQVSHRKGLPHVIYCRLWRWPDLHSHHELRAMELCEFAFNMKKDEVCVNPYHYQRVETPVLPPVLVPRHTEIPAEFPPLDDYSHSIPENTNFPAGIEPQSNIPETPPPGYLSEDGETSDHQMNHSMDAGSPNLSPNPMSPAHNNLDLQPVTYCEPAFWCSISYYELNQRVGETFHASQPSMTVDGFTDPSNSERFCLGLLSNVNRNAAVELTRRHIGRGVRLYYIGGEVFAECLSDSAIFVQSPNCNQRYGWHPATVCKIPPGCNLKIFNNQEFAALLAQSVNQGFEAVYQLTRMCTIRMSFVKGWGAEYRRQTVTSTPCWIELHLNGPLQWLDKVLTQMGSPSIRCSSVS
UniProt P84022: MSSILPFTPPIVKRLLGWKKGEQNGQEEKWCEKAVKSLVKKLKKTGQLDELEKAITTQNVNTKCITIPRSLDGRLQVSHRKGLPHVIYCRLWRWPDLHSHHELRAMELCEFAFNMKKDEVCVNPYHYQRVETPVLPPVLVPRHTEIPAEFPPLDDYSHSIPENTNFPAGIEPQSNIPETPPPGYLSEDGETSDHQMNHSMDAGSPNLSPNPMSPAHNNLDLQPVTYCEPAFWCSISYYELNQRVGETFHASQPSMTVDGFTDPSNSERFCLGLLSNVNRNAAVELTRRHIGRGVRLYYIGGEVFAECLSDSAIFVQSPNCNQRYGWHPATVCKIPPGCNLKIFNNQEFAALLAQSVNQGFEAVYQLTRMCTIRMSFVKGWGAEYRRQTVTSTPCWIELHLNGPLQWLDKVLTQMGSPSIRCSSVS

Test [1] addresses poly(ADP-ribose) polymerase 1, endogenous in nuclear extracts of rat VSMCs (rat (endogenous in rat VSMCs)) (UniProt P27008). Briefly: co-IP; 500 µg nuclear extracts from TGF-β1-treated rat VSMCs; antibody 1 hour at 4°C, protein-G agarose 12 hours at 4°C, washed 4 times with lysis buffer; western blot; unspecific IgG as negative control.
For test [2] the target is unchanged. Briefly: far-Western, overlay or dot blot; nuclear extracts of rat VSMCs resolved by SDS-PAGE and transferred to PVDF; membrane in Hyb-75 buffer (20 mmol/L HEPES pH 7.6, 75 mmol/L KCl) with 5% non-fat milk overnight at 4°C; probed with 1 µg/ml recombinant protein (PARP1 or pSmad3) at room temperature for 1 hour; detected with anti-PARP1 or anti-Smad3 antibody; only the binder purified.

The target in test [3] is phosphorylated Smad3, endogenous in nuclear extracts of TGF-β1-treated rat VSMCs (rat (endogenous in rat VSMCs)) (UniProt P84025). Briefly: co-IP; 500 µg nuclear extracts from TGF-β1-treated rat VSMCs; antibody 1 hour at 4°C, protein-G agarose 12 hours at 4°C, washed 4 times with lysis buffer; western blot; unspecific IgG as negative control. Background: Immunoblotting shows a protein as a band on a membrane.

No constants are given. Whether binding was seen depends on the method and setting. For part of these data: Binding seen in cells or lysates may run through a third protein. Some binding calls cover weakened binding; strength is not graded here.

For “phosphorylated Smad3, endogenous in nuclear extracts of TGF-β1-treated rat VSMCs (from UniProt P84025 1-425)”, the binding entry in test [1] is recorded as “binds”.

Turning to “phosphorylated Smad3, recombinant protein (from UniProt P84022 1-425)”, in test [2], the binding result was “binds”.

Turning to “poly(ADP-ribose) polymerase 1, endogenous in nuclear extracts of rat VSMCs (from UniProt P27008 1-1014) (enzyme)”, in test [3], the binding entry is recorded as “binds”.
